The numbers were not newly measured in article PMC7954469 (European journal of medicinal chemistry, 2021), which cites them from elsewhere.

This series has as its system p97. Conditions: cited from earlier work.

SMILES strings stand for the structures.

Turning to `Clc1ccccc1C(c1ccccc1)(c1ccccc1)n1ccnc1` [Clotrimazole], the IC50 is 12 µM.

As usually defined, the IC50 is the concentration that gives 50% inhibition.
